Measured values from US9243237B2, “Method for mass production of factor VII/VIIA” (HANMI SCIENCE CO., LTD, priority 2010, dated 2016).

System: hFVII-expressing recombinant CHO cell line (HMF708)
Assay: Growth of the cell line in mass-scale production medium (4 L incubation tanks, continuous feed) containing sodium butyrate, hFVII level by enzyme immunoassay
Assay type: cell-based, Chinese hamster
Conditions: culturing stopped when cellular activity less than 80%
Protocol: The transformed cells of Example <2-1> were seeded at a density of 2×10^4 cells/well to 24-well plates. When the cells were grown to almost full confluence, serum-free CHO-A-SFM (Gibco, Cat. No. 05-5072EF) supplemented with 0.3 mM sodium butyrate (Sigma, Cat. No. B5887) was aliquoted in an amount of 200 μL/well, followed by incubation at 33° C. for 48 hours in a 5% CO2 incubator. The cell culture was transferred to 1.5 mL tubes and centrifuged. Expression levels of human factor VII in the supernatants were measured by taking measurements using an enzyme immunoassay kit (American Diagnostica, Cat. no. 877) according to the manufacturer's instruction. In detail, the cell culture and the standard substance enclosed in the kit were diluted to certain concentrations in physiological saline containing 0.05% Tween-20, and the dilutions were added in an amount of 100 μL to each well of the kit and allowed to react at room temperature for one hour on a plate shaker. After being washed four times with the washing solution enclosed in the kit, each of the wells was incubated at room temperature for one hour with 100 μL of an anti-human factor VII antibody on a plate shake. Each well was again washed four times with the washing solution and then incubated at room temperature for 30 min with 100 μL of an HRP (horseradish peroxidase)-conjugated antibody to the anti-human factor VII antibody. Subsequently, the wells were washed four times, and incubated with 100 μL of a substrate per well at room temperature. Five minutes later, 50 μL of a stopping solution was added to each well, followed by measuring absorbance at 450 nm. A standard curve and a function were obtained from the concentrations of the standard solution and the absorbance values obtained.
One vial (1×10^7 cells/mL) of the hFVII-expressing cell line which had been selected and assimilated to suspension culture in Example <2-3> was taken from a liquid nitrogen tank and thawed as soon as possible in a 37° C. bath. After being washed once with a seed culturing medium (EX-CELL CHO medium (Sigma, Cat. No. 63225C) supplemented with 0.3 g/L glutamine), the cell culture was centrifuged at 90×g for min and then inoculated into 50 mL of a seed culture medium in an Erlenmeyer flask (Corning, USA cat#431144). When grown for 1-2 days to a density of 10×10^5 cell/mL in a CO2 incubator (37° C., 5% CO2), the cells were centrifuged again in the same manner and then sub-cultured in 100 mL of a fresh seed culture medium in a new Erlenmeyer flask. The double-volume passage was continued until a sufficient number of cells were achieved. […]
In addition, after the cell cultures taken during the cultivation was centrifuged, the levels of hFVII in the supernatants were measured using an enzyme immunoassay method as in Example <2-2>.

CCCC(=O)[O-].[Na+] [Sodium Butyrate, sodium butyrate]
Period of Time of Production (% compared to control) (0.3 mM sodium butyrate (control)): 100.0%
Period of Time of Production (% compared to control) (1 mM sodium butyrate, control = 0.3 mM): 83.3%
Period of Time of Production (% compared to control) (1.5 mM sodium butyrate, control = 0.3 mM): 72.2%
Period of Time of Production (% compared to control) (2.0 mM sodium butyrate, control = 0.3 mM): 61.1%
